Values quoted from earlier work, collected in patent US11542290B2 (priority 2018, dated 2023).

System: MDCK-MDR1 cells
Conditions: cited from earlier work

CC(C)NCC(O)COc1ccc(CC(N)=O)cc1 (stereo not shown) [Atenolol]
Brain penetrance of reference compound (in words): limited brain penetrance
